Experimental data from patent publication US20030114467A1, “Novel pyrazolo- and pyrrolo-pyrimidines and uses thereof” (priority 2001, published 2003).
At least one compound was matched to its structure with a doubt left.

Assay: Hydroxyapatite assay (hydroxyapatite adsorption chromatography, bone-targeting potential)
Assay type: physicochemical
Settings: corrected retention K=(retention time-void time)/void; TSK-Gel HA 1000 HPLC column; linear gradient 10 mM to 500 mM sodium phosphate, 0.15 N NaCl, pH 6.8
Description: Hydroxyapatite is the principal mineral component of bone. Hydroxyapatite adsorption chromatography is used as an assay to evaluate the bone-targeting potential of both individual bone-targeting moieties (“monomers”) and of pharmaceuticals incorporating bone-targeting groups.
Method: The rentention time of a test compound is measured using a linear gradient from 10 mM sodium phosphate, 0.15 N NaCl, pH=6.8 to 500 mM sodium phosphate, 0.15 N NaCl, […] on a TSK-Gel HA 1000 high pressure liquid chromatography column (7.5 mm×75 mm). The rentention time of the compound is expressed in terms of K=(retention time-void time)/void. This K value is corrected using two reference compounds to correct from inter-column and inter-system variation to obtain a K′ value.
Reference Compounds: K′ values were determined for known bone targeted compounds, the bisphosphonate, alendronate and tetracycline.

With `CN(C)[C@@H]1C(O)=C(C(N)=O)C(=O)[C@@]2(O)C(O)=C3C(=O)c4c(O)cccc4[C@@](C)(O)[C@H]3C[C@@H]12` [tetracycline] as the molecule, how does the “K′ value” read?
Its value is 2.0.
